In US12491217B2, “Compositions and methods for promoting healthy neural development in an unborn baby” (The Regents of the University of California, priority 2019, dated 2025):

How the values were obtained:
[1] = Metabolomics of maternal serum at E14.5; assay type: in vivo, C57Bl/6J mice
[2] = Metabolomics of fetal brain at E14.5; assay type: in vivo, C57Bl/6J mice
[3] = metabolite level in E14.5 fetal brain, ANOVA contrast ABX/SPF
[4] = metabolite level in E14.5 fetal brain, ANOVA contrast GF/ABX
[5] = metabolite level in E14.5 fetal brain, ANOVA contrast GF/SPF
[6] = metabolite level in E14.5 fetal brain, ANOVA contrast GF/Sp
[7] = metabolite level in E14.5 fetal brain, ANOVA contrast Sp/ABX
[8] = metabolite level in E14.5 fetal brain, ANOVA contrast Sp/SPF

Structure (SMILES) | fold of change ABX/SPF [2, 3] | fold of change GF/ABX [2, 4] | fold of change GF/SPF [2, 5] | fold of change GF/Sp [2, 6] | fold of change Sp/ABX [2, 7] | fold of change Sp/SPF [2, 8] | also measured
CC(C(=O)O)c1ccc(O)cc1 (stereo not drawn) [2-(4-hydroxyphenyl)propionate] | – | – | – | – | – | – | fold of change ABX/SPF [1]: 0.06; fold of change GF/ABX [1]: 1.00; fold of change GF/SPF [1]: 0.06; fold of change GF/Sp [1]: 0.06; fold of change Sp/ABX [1]: 16.71; fold of change Sp/SPF [1]: 0.99
O=C(O)CCc1cccc(O)c1.O=S(=O)(O)O [3-(3-hydroxyphenyl)propionate sulfate] | – | – | – | – | – | – | fold of change ABX/SPF [1]: 0.01; fold of change GF/ABX [1]: 1.00; fold of change GF/SPF [1]: 0.01; fold of change GF/Sp [1]: 0.14; fold of change Sp/ABX [1]: 7.24; fold of change Sp/SPF [1]: 0.07
C[C@H](CCC(=O)O)[C@H]1CC[C@H]2[C@@H]3C(=O)C[C@@H]4C[C@H](O)CC[C@]4(C)[C@H]3C[C@H](O)[C@]12C [7-ketodeoxycholate] | – | – | – | – | – | – | fold of change ABX/SPF [1]: 0.00; fold of change GF/ABX [1]: 1.00; fold of change GF/SPF [1]: 0.00; fold of change GF/Sp [1]: 0.00; fold of change Sp/ABX [1]: 717.10; fold of change Sp/SPF [1]: 3.31
C[C@H](CCC(=O)O)[C@H]1CC[C@H]2[C@@H]3[C@H](O)[C@@H](O)[C@@H]4C[C@H](O)CC[C@]4(C)[C@H]3CC[C@]12C [alpha-muricholate] | – | – | – | – | – | – | fold of change ABX/SPF [1]: 0.04; fold of change GF/ABX [1]: 1.00; fold of change GF/SPF [1]: 0.04; fold of change GF/Sp [1]: 0.00; fold of change Sp/ABX [1]: 221.52; fold of change Sp/SPF [1]: 8.04
Cc1ncc(CO)c(C=O)c1O [compound 3754] | 0.83 | 0.87 | 0.72 | 0.81 | 1.07 | 0.89 | –
O=C(O)CNC(=O)c1ccccc1 [compound 3757] | 0.24 | 1.00 | 0.24 | 0.58 | 1.72 | 0.42 | –
O=C(O)c1ccccc1 [compound 3771] | 0.96 | 1.17 | 1.12 | 1.22 | 0.96 | 0.92 | –
O=Cc1c[nH]c2ccccc12 [compound 3978] | 0.59 | 1.37 | 0.81 | 0.96 | 1.43 | 0.84 | –
O=C(O)[C@H](O)[C@@H](O)[C@H](O)[C@H](O)CO [compound 4000] | 0.67 | 1.86 | 1.24 | 1.22 | 1.52 | 1.01 | –
C[N+](C)(C)[C@@H](Cc1c[nH]c(=S)[nH]1)C(=O)[O-] [compound 4079] | 1.19 | 0.66 | 0.79 | 0.80 | 0.83 | 0.98 | –
C[N+]1(C)CCCC[C@H]1C(=O)[O-] [compound 4108] | 0.38 | 1.24 | 0.46 | 0.65 | 1.91 | 0.72 | –
O=C(O)[C@@H](O)[C@@H](O)[C@H](O)[C@H](O)CO [compound 4131] | 0.94 | 1.07 | 1.00 | 1.14 | 0.93 | 0.88 | –
O=C(CO)NC1C(O)CC(O)(C(=O)O)OC1C(O)C(O)CO (stereo not drawn) [compound 4144] | 0.75 | 1.12 | 0.84 | 0.88 | 1.26 | 0.95 | –
C[N+]1(C)CCC[C@H]1C(=O)[O-] [compound 4221] | 0.44 | 1.28 | 0.57 | 0.73 | 1.75 | 0.77 | –
N[C@@H](CCCCn1c(C=O)ccc1CO)C(=O)O [compound 4274] | 0.46 | 0.87 | 0.40 | 0.41 | 2.14 | 0.98 | –
O=C(O)C(O)C(=O)O [compound 4363] | 0.56 | 1.39 | 0.78 | 0.76 | 1.84 | 1.03 | –
O=C(O)c1ccccc1O [compound 4756] | 0.71 | 1.04 | 0.74 | 0.80 | 1.29 | 0.92 | –
O=S(=O)(O)O [compound 4832] | 1.06 | 0.91 | 0.96 | 1.02 | 0.90 | 0.95 | –
N[C@@H](Cc1ccc(OS(=O)(=O)O)cc1)C(=O)O [compound 4835] | 0.47 | 1.22 | 0.58 | 0.61 | 2.01 | 0.95 | –
CC1=NCCC(C(=O)O)N1 (stereo not drawn) [compound 4899] | 0.81 | 0.77 | 0.62 | 0.37 | 2.09 | 1.68 | –
O=S1(=O)OC(c2ccc(O)cc2)(c2ccc(O)cc2)c2ccccc21 [compound 4926] | 0.91 | 20.85 | 18.88 | 20.85 | 1.00 | 0.91 | –
O=S(=O)(O)C(F)(F)C(F)(F)C(F)(F)C(F)(F)C(F)(F)C(F)(F)C(F)(F)C(F)(F)F [compound 4930] | 1.16 | 1.07 | 1.25 | 0.54 | 1.99 | 2.31 | –
O=C(O)C1CSCN1 (stereo not drawn) [compound 4971] | 1.08 | 0.52 | 0.56 | 1.19 | 0.44 | 0.47 | –
O=C(O)CCc1c[nH]c2ccccc12 [indolepropionate] | – | – | – | – | – | – | fold of change ABX/SPF [1]: 0.01; fold of change GF/ABX [1]: 0.24; fold of change GF/SPF [1]: 0.00; fold of change GF/Sp [1]: 0.00; fold of change Sp/ABX [1]: 54.72; fold of change Sp/SPF [1]: 0.70
O=C(O)CNC(=O)Cc1ccccc1 [phenylacetylglycine] | – | – | – | – | – | – | fold of change ABX/SPF ([2]; fetal brain, E14.5): 0.45; fold of change GF/ABX ([2]; fetal brain, E14.5): 1.00; fold of change GF/SPF ([2]; fetal brain, E14.5): 0.45; fold of change GF/Sp ([2]; fetal brain, E14.5): 0.56; fold of change Sp/ABX ([2]; fetal brain, E14.5): 1.79; fold of change Sp/SPF ([2]; fetal brain, E14.5): 0.80
O=C(O)CNC(=O)CCc1ccccc1 [phenylpropionylglycine] | – | – | – | – | – | – | fold of change ABX/SPF [1]: 0.01; fold of change GF/ABX [1]: 1.00; fold of change GF/SPF [1]: 0.01; fold of change GF/Sp [1]: 0.01; fold of change Sp/ABX [1]: 72.57; fold of change Sp/SPF [1]: 0.60
C[C@H](CCC(=O)NCCS(=O)(=O)O)[C@H]1CC[C@H]2[C@@H]3CC[C@@H]4C[C@H](O)CC[C@]4(C)[C@H]3C[C@H](O)[C@]12C [taurodeoxycholate] | – | – | – | – | – | – | fold of change ABX/SPF [1]: 0.00; fold of change GF/ABX [1]: 1.00; fold of change GF/SPF [1]: 0.00; fold of change GF/Sp [1]: 0.05; fold of change Sp/ABX [1]: 21.07; fold of change Sp/SPF [1]: 0.07
C[C@H](CCC(=O)O)[C@H]1CC[C@H]2[C@@H]3[C@@H](O)C[C@@H]4C[C@H](O)CC[C@]4(C)[C@H]3CC[C@]12C [ursodeoxycholate] | – | – | – | – | – | – | fold of change ABX/SPF [1]: 0.02; fold of change GF/ABX [1]: 1.00; fold of change GF/SPF [1]: 0.02; fold of change GF/Sp [1]: 0.00; fold of change Sp/ABX [1]: 201.13; fold of change Sp/SPF [1]: 3.73
